Data taken from the supplement of paper PMC5949888.
Most values lie at the floor of the assay. Slopes are relative: functional sequences can read slightly below zero.

test system: Saccharomyces cerevisiae PS128 hsf1 delta, HSF1(1-493) fusion; test: growth estimate (transactivation domain function in HSF1 fusion, heat-shock survival) (a.u. (slope of normalised read count over time)); higher = stronger growth at 37°C, i.e. more transactivation activity; settings: library: random library
Experimental: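 Random 60-nt DNA library encoding peptides of up to 20 aa, fused to the C-terminus of yeast HSF1 residues 1-493 (C-terminal TAD deleted) and expressed from the native HSF1 promoter on a CEN plasmid in hsf1-deleted S. cerevisiae PS128. Cells were selected at 37°C on -trp 5-FOA plates for 0, 2, 4, 6 and 8 days and amplicons were sequenced. Growth estimate is the slope of a robust linear fit of total-sum-normalised read counts (normalised to the first time point) over time, using at least 2 replicates. Sequences are classed functional (TAD activity) above a threshold of -0.13, set from stop-codon control sequences.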

Question: How did the growth estimate turn out when FGNVGQTQGVGIVTILHWTR was run?
Answer: < -0.25

Question: How did the growth estimate turn out when FGNWVPKAATGG was run?
Answer: < -0.25

Question: FGP was tested. Which growth estimate did it give?
Answer: < -0.25

Question: FGPEIYASLRVDSESFSISG was tested. Which growth estimate did it give?
Answer: < -0.25

Question: Which growth estimate does the source give for FGPIR here?
Answer: < -0.25

Question: For FGPLSKRVHCFVGNGASYRG, which growth estimate is on record?
Answer: < -0.25

Question: For FGPRRFDRHGT, which growth estimate is on record?
Answer: < -0.25

Question: How did the growth estimate turn out when FGQSLVMW was run?
Answer: < -0.25

Question: Which growth estimate does the source give for FGRSLPEGSKAEFIEGQSSR here?
Answer: < -0.25

Question: Which growth estimate does the source give for FGSRHWEPVCSVRVERL here?
Answer: < -0.25

Question: For FGSSKL, which growth estimate is on record?
Answer: < -0.25

Question: For FGSVRINFKSGRCIQEGETS, which growth estimate is on record?
Answer: < -0.25

Question: FGTSRQKTCCPLSLQRDRFP was tested. Which growth estimate did it give?
Answer: -0.245

Question: For FGVRCGLAMPIVRPGDALAY, which growth estimate is on record?
Answer: -0.246

Question: How did the growth estimate turn out when FGVYGTRYKHLPTPCVHRPI was run?
Answer: < -0.25

Question: Which growth estimate does the source give for FGWQEKMCRHQHQTRGEVVP here?
Answer: < -0.25

Question: With FGYNTEATVIAVPLVARLEA as the substance, how does the growth estimate read?
Answer: < -0.25

Question: How did the growth estimate turn out when FHLAYPGVGGEIDKTQSSCV was run?
Answer: < -0.25

Question: Which growth estimate does the source give for FHLDRVIRDHTKGPDRSLPH here?
Answer: < -0.25

Question: FHNTSTMMDAHPDRV was tested. Which growth estimate did it give?
Answer: < -0.25

Question: For FHPC, which growth estimate is on record?
Answer: < -0.25

Question: Which growth estimate does the source give for FHTCPLAE here?
Answer: < -0.25

Question: How did the growth estimate turn out when FHTRSAGVQRRLRRITDRRE was run?
Answer: < -0.25

Question: For FHYSVSFGPGKLVVRPAIRG, which growth estimate is on record?
Answer: < -0.25

Question: How did the growth estimate turn out when FIAMWSTHVVIVF was run?
Answer: < -0.25

Question: Which growth estimate does the source give for FIATSVYTVGSWSTVQVSLA here?
Answer: < -0.25

Question: How did the growth estimate turn out when FIDQSRTRVGGTGSLVLT was run?
Answer: < -0.25

Question: Which growth estimate does the source give for FIDRRKAACVAQRWERWCAV here?
Answer: -0.246

Question: Which growth estimate does the source give for FIFW here?
Answer: < -0.25

Question: FIGV was tested. Which growth estimate did it give?
Answer: < -0.25

Question: FIGVTPVDFLLLKPGHICLP was tested. Which growth estimate did it give?
Answer: < -0.25

Question: FIIPDRTDDRILARFGLSSN was tested. Which growth estimate did it give?
Answer: < -0.25

Question: With FILCLTDDIRLFGKEPRSGA as the substance, how does the growth estimate read?
Answer: < -0.25

Question: For FILGFQGRAWNYAFSVVKGS, which growth estimate is on record?
Answer: < -0.25

Question: With FIMGMLRP as the substance, how does the growth estimate read?
Answer: < -0.25

Question: How did the growth estimate turn out when FIRSIQVLRKVCGRVLSYTG was run?
Answer: < -0.25

Question: For FISDKRIAPWGVTAGDHFRQ, which growth estimate is on record?
Answer: < -0.25

Question: Which growth estimate does the source give for FIWGRGKLGSKIKQLSSMSA here?
Answer: < -0.25

Question: How did the growth estimate turn out when FIWII was run?
Answer: < -0.25

Question: For FKCYR, which growth estimate is on record?
Answer: < -0.25

Question: With FKGIGRKELNQMTPAGREQP as the substance, how does the growth estimate read?
Answer: < -0.25

Question: With FKIVPARWPGLAINAVRRRV as the substance, how does the growth estimate read?
Answer: < -0.25

Question: Which growth estimate does the source give for FKKTPDYLQTGMVQSLLFKG here?
Answer: < -0.25

Question: FKNLGFHRQ was tested. Which growth estimate did it give?
Answer: < -0.25

Question: With FKNYRAT as the substance, how does the growth estimate read?
Answer: < -0.25

Question: FKPPLVPHIRI was tested. Which growth estimate did it give?
Answer: < -0.25

Question: Which growth estimate does the source give for FKSDVLFLTSDTSIGSGYRN here?
Answer: -0.228

Question: With FKSTRADSHRAGKCGSACFR as the substance, how does the growth estimate read?
Answer: < -0.25

Question: How did the growth estimate turn out when FKTGRQCR was run?
Answer: < -0.25

Question: For FKTHSLQFSLIRETEQDMPD, which growth estimate is on record?
Answer: < -0.25

Question: How did the growth estimate turn out when FKVRSPLLFFV was run?
Answer: < -0.25

Question: Which growth estimate does the source give for FKVWAAG here?
Answer: < -0.25

Question: How did the growth estimate turn out when FLAERFVYAPSM was run?
Answer: < -0.25

Question: For FLATPSGPQFNSTQVRCRPK, which growth estimate is on record?
Answer: -0.222

Question: How did the growth estimate turn out when FLCGGSGLQVGAPGVVEPTD was run?
Answer: < -0.25

Question: FLCIGLWRPV was tested. Which growth estimate did it give?
Answer: < -0.25

Question: For FLEIRFCGLTSEAAASH, which growth estimate is on record?
Answer: < -0.25

Question: With FLETMGYD as the substance, how does the growth estimate read?
Answer: < -0.25

Question: How did the growth estimate turn out when FLGRGNHTGLDELTPLSNLA was run?
Answer: < -0.25

Question: FLGSGAEHSLTGPTILMD was tested. Which growth estimate did it give?
Answer: < -0.25

Question: For FLHRDELRSSTGLRPVWVRV, which growth estimate is on record?
Answer: < -0.25

Question: With FLKIFVLSLGLRVKCRLLKR as the substance, how does the growth estimate read?
Answer: < -0.25

Question: For FLLGIGRPLVMLGKRRPP, which growth estimate is on record?
Answer: < -0.25

Question: For FLLNVLPVLVVLPR, which growth estimate is on record?
Answer: < -0.25

Question: For FLLSRARGEEPAISKPDESL, which growth estimate is on record?
Answer: < -0.25

Question: Which growth estimate does the source give for FLLWASCTECGCRLSAGVSL here?
Answer: < -0.25

Question: With FLNLIKGLRPLMGAHTASTT as the substance, how does the growth estimate read?
Answer: < -0.25

Question: FLNTFSDISSCF was tested. Which growth estimate did it give?
Answer: -0.25

Question: How did the growth estimate turn out when FLPPGWVNLPHGGNLGAHFP was run?
Answer: < -0.25

Question: Which growth estimate does the source give for FLPSKHID here?
Answer: -0.171

Question: For FLR, which growth estimate is on record?
Answer: < -0.25

Question: Which growth estimate does the source give for FLRRVVGHQAPIALGSKYWL here?
Answer: < -0.25

Question: How did the growth estimate turn out when FLRSFILLFLWCGTKASLHG was run?
Answer: < -0.25

Question: Which growth estimate does the source give for FLSLVRGGLAQVTGRQGIRG here?
Answer: < -0.25

Question: Which growth estimate does the source give for FLSLVRTRREYRRSVTLQLI here?
Answer: < -0.25

Question: For FLSSLARRHVPTFRRKRCGA, which growth estimate is on record?
Answer: < -0.25

Question: With FLSTCSPVAMLFRSRC as the substance, how does the growth estimate read?
Answer: < -0.25

Question: FLSV was tested. Which growth estimate did it give?
Answer: < -0.25

Question: With FLVFSTRLGHQYNYH as the substance, how does the growth estimate read?
Answer: < -0.25

Question: Which growth estimate does the source give for FLVKGDSKSFHCAATSTSDC here?
Answer: < -0.25

Question: How did the growth estimate turn out when FMAERCRRSWQGALVCP was run?
Answer: < -0.25

Question: For FMEPE, which growth estimate is on record?
Answer: < -0.25

Question: Which growth estimate does the source give for FMGAAGWSTTSGGLVTYSP here?
Answer: < -0.25

Question: FMLGSHL was tested. Which growth estimate did it give?
Answer: < -0.25

Question: With FMNTI as the substance, how does the growth estimate read?
Answer: < -0.25

Question: For FMSVRLDGAHRLFSFCPFWL, which growth estimate is on record?
Answer: < -0.25

Question: FMVGWMR was tested. Which growth estimate did it give?
Answer: < -0.25

Question: With FMVH as the substance, how does the growth estimate read?
Answer: < -0.25

Question: Which growth estimate does the source give for FMYETSYANGAPMSHVHASV here?
Answer: < -0.25

Question: How did the growth estimate turn out when FNLLGLSKYS was run?
Answer: -0.245

Question: For FNLPPISRTGR, which growth estimate is on record?
Answer: < -0.25

Question: With FNLVRFKLKLEQQIGDKIPL as the substance, how does the growth estimate read?
Answer: < -0.25

Question: How did the growth estimate turn out when FNNEVKRHRGSATVERLKPP was run?
Answer: < -0.25

Question: How did the growth estimate turn out when FNPAVRMDVEDSL was run?
Answer: < -0.25

Question: For FNPLRPVSW, which growth estimate is on record?
Answer: < -0.25
